Taken from: PubChem BioAssay AID1671195 (Yale University, 2021)

- Test: 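Genes whose knockdown alters LDL uptake in liver cancer cells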 (primary screen)
- Cells: human Huh7 hepatoma cells
- Reagent: siRNA pool against human genes, 18 nM
- Timing: about 2 to 2.5 days of knockdown, then 8 h LDL uptake
- Treatment: DiI-labelled LDL at 30 µg/ml for 8 h, in lipoprotein-deficient serum medium
- Read-out: 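Fluorescent LDL signal imaged in cells, scaled to the plate median, robust z-score for each replicate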
- Reading the numbers: robust z-score: higher = more LDL uptake after knockdown
- Call rule: 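a gene counts as active if at least two replicate z-scores exceed ±2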
The whole screen tested about 22,000 reagents; this is a random part of them. About 1,510 of all reagents (6.9%) were called active. 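Active includes knockdowns raising or lowering LDL uptake; positive z-scores mean more uptake, negative mean less.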 Entries without a mark were called inactive. Reagents against one gene are numbered here. Reagent sequences are not shown.

For PALM3 (GeneID 342979) the deposit lists robust z-score, replicate 1 = 0.581; robust z-score, replicate 2 = 0.823; robust z-score, replicate 3 = 0.127. After knock-down of MCFD2 (GeneID 90411), the screen gave robust z-score, replicate 1 = 1.06; robust z-score, replicate 2 = 0.734; robust z-score, replicate 3 = 0.91. For FBXO40 (GeneID 51725), the entry reads robust z-score, replicate 1 = 1.38; robust z-score, replicate 2 = 2.03; robust z-score, replicate 3 = 1.34. Against CABIN1 (GeneID 23523), the values are robust z-score, replicate 1 = 0.978; robust z-score, replicate 2 = -1.96; robust z-score, replicate 3 = 0.477. After knock-down of B4GALT2 (GeneID 8704), the screen gave robust z-score, replicate 1 = 0.221; robust z-score, replicate 2 = 0.415; robust z-score, replicate 3 = -0.264. After knock-down of SLC4A8 (GeneID 9498) #1, the record shows robust z-score, replicate 1 = -2.26 (active); robust z-score, replicate 2 = -1.97; robust z-score, replicate 3 = -2.2.

After knock-down of SLC4A8 (GeneID 9498) #2, the screen gave robust z-score, replicate 1 = -0.292; robust z-score, replicate 2 = -0.405; robust z-score, replicate 3 = 0.191. OPN4 (GeneID 94233) scored robust z-score, replicate 1 = 1.55; robust z-score, replicate 2 = 1.46; robust z-score, replicate 3 = 2.45. After knock-down of SPINK2 (GeneID 6691) the results were robust z-score, replicate 1 = 1.23; robust z-score, replicate 2 = 0.94; robust z-score, replicate 3 = 1.24. MDM2 (GeneID 4193) showed robust z-score, replicate 1 = 0.969; robust z-score, replicate 2 = 0.758; robust z-score, replicate 3 = 1.63. For SSMEM1 (GeneID 136263), the values are robust z-score, replicate 1 = 0.228; robust z-score, replicate 2 = 0.115; robust z-score, replicate 3 = -0.0895. Depletion of GINS3 (GeneID 64785) resulted in: robust z-score, replicate 1 = -0.348; robust z-score, replicate 2 = -0.292; robust z-score, replicate 3 = -0.782.

Silencing of SNTB2 (GeneID 6645) resulted in: robust z-score, replicate 1 = -0.543; robust z-score, replicate 2 = -0.67; robust z-score, replicate 3 = -0.683. Against CLEC1A (GeneID 51267), the entry reads robust z-score, replicate 1 = -1.66; robust z-score, replicate 2 = -1.41; robust z-score, replicate 3 = -0.958. With knock-down of LOC441646 (retired record) (GeneID 441646), the record shows robust z-score, replicate 1 = -0.0408; robust z-score, replicate 2 = 0.24; robust z-score, replicate 3 = 0.51.

Ordered by “robust z-score, replicate 3” (high to low): some entries from above.
OPN4 (GeneID 94233): robust z-score, replicate 1 = 1.55; robust z-score, replicate 2 = 1.46; robust z-score, replicate 3 = 2.45
SLC4A8 (GeneID 9498) #2: robust z-score, replicate 1 = -0.292; robust z-score, replicate 2 = -0.405; robust z-score, replicate 3 = 0.191
SLC4A8 (GeneID 9498) #1: robust z-score, replicate 1 = -2.26 (active); robust z-score, replicate 2 = -1.97; robust z-score, replicate 3 = -2.2

Continued.
After knock-down of SLFNL1 (GeneID 200172), the screen gave robust z-score, replicate 1 = -0.329; robust z-score, replicate 2 = -0.496; robust z-score, replicate 3 = 0.0322. For FAHD1 (GeneID 81889), the entry reads robust z-score, replicate 1 = -1.22; robust z-score, replicate 2 = -1.54; robust z-score, replicate 3 = -1.37. GORASP1 (GeneID 64689) scored robust z-score, replicate 1 = 0.217; robust z-score, replicate 2 = 0.152; robust z-score, replicate 3 = 0.958. RASSF5 (GeneID 83593) gave robust z-score, replicate 1 = 0.789; robust z-score, replicate 2 = 1.67; robust z-score, replicate 3 = 1.55. NAA16 (GeneID 79612) scored robust z-score, replicate 1 = -1.49; robust z-score, replicate 2 = -1.42; robust z-score, replicate 3 = -0.832. After knock-down of LOC440983 (retired record) (GeneID 440983), the screen gave robust z-score, replicate 1 = -0.111; robust z-score, replicate 2 = -0.792; robust z-score, replicate 3 = -0.652.

PCDHGB7 (GeneID 56099) showed robust z-score, replicate 1 = -0.637; robust z-score, replicate 2 = -1.03; robust z-score, replicate 3 = -0.383. Against ZNF296 (GeneID 162979), the values are robust z-score, replicate 1 = -1.04; robust z-score, replicate 2 = -0.79; robust z-score, replicate 3 = -0.822. ASB15 (GeneID 142685) gave robust z-score, replicate 1 = 0.0542; robust z-score, replicate 2 = -0.323; robust z-score, replicate 3 = -0.84. For CLEC4E (GeneID 26253), the values are robust z-score, replicate 1 = -1.08; robust z-score, replicate 2 = -0.963; robust z-score, replicate 3 = -2.69. For MAB21L4 (GeneID 79919) the deposit lists robust z-score, replicate 1 = -1.31; robust z-score, replicate 2 = -1.7; robust z-score, replicate 3 = -1.79. Silencing of FOXE3 (GeneID 2301) gave: robust z-score, replicate 1 = 1.32; robust z-score, replicate 2 = 0.364; robust z-score, replicate 3 = -0.156.

Against GPR45 (GeneID 11250), the entry reads robust z-score, replicate 1 = 0.212; robust z-score, replicate 2 = 0.0308; robust z-score, replicate 3 = -0.558. NEFM (GeneID 4741) showed robust z-score, replicate 1 = -0.24; robust z-score, replicate 2 = 1.63; robust z-score, replicate 3 = 0.222. NONO (GeneID 4841) scored robust z-score, replicate 1 = 0.781; robust z-score, replicate 2 = -0.195; robust z-score, replicate 3 = 1.01.
